Structures are written as SMILES. The list shows a part of the results. Single values are uncertain, as repeats are few or missing.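 Cells were imaged in 1,536-well plates, and nuclei stained with an antibody against cleaved PARP were counted against all DNA-stained nuclei to give the apoptosis fraction. Screening doses were chosen to leave most cells alive, and resting and induced cleaved-PARP levels differ strongly between cell lines.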

The first assay has as its system COLO829. In words: cleaved PARP positive nuclei fraction relative to DMSO control; melanoma cells; higher = more apoptosis. To be noted: library dose: low library concentration; 72 h.
`CN(c1ncccc1CNc1nc(Nc2ccc3c(c2)CC(=O)N3)ncc1C(F)(F)F)S(C)(=O)=O` + CO[C@@H]1[C@H](N(C)C(=O)c2ccccc2)C[C@H]2O[C@]1(C)n1c3ccccc3c3c4c(c5c6ccccc6n2c5c31)C(=O)NC4 [Midostaurin] (first compound 0.08 µM, partner dose 0.08 µM): the “cleaved PARP positive nuclei fraction” value amounted to 208%. As to `Cn1sc(=O)n(Cc2ccccc2)c1=O` + c1cc(-c2cnn3cc(-c4ccc(OCCN5CCCCC5)cc4)cnc23)ccn1 [Dorsomorphin] (first compound 0.4 µM, partner dose 0.4 µM), the “cleaved PARP positive nuclei fraction” value was determined as 147%. On to `CC(=O)O[C@@]12CO[C@@H]1C[C@H](O)[C@@]1(C)C(=O)[C@H](O)C3=C(C)[C@@H](OC(=O)[C@H](O)[C@@H](NC(=O)OC(C)(C)C)c4ccccc4)C[C@@](O)([C@@H](OC(=O)c4ccccc4)[C@H]21)C3(C)C` [Docetaxel] + N#Cc1c(O)c2c(-c3ccc(-c4ccccc4O)cc3)csc2[nH]c1=O [A769662] (first compound 0.0001 µM, partner dose 2 µM), for which the “cleaved PARP positive nuclei fraction” value is 237%. The same measure, in the same setting: under `Cn1cnc2c(F)c(Nc3ccc(Br)cc3Cl)c(C(=O)NOCCO)cc21` [selumetinib] + OCCn1cc(-c2cnc3nnn(Cc4ccc5ncccc5c4)c3n2)cn1 [PF04217903] (first compound 0.015 µM, partner dose 1 µM) stands 53.8%; under `Cn1cnc2c(F)c(Nc3ccc(Br)cc3Cl)c(C(=O)NOCCO)cc21` [selumetinib] + Oc1cc(-c2nc(-c3ccccc3)[nH]c2-c2ccncc2)ccc1Cl [L779450] (first compound 0.015 µM, partner dose 0.2 µM), 158%.

As for `Cn1sc(=O)n(Cc2ccccc2)c1=O` + CCCCCCCCCCCC1=C(O)C(=O)C=C(O)C1=O [Embelin] (first compound 0.4 µM, partner dose 1.2 µM), the “cleaved PARP positive nuclei fraction” value came out at 109%.

Regarding `CCN(CC)CCNC(=O)c1c(C)[nH]c(/C=C2\C(=O)Nc3ccc(F)cc32)c1C` [sunitinib] + CCc1ccc(CCOc2ccc(CC3SC(=O)NC3=O)cc2)nc1 [pioglitazone] (first compound 0.4 µM, partner dose 2 µM), the “cleaved PARP positive nuclei fraction” value was determined as 13.6%.

The next assay deals with G361. The description is as above. Conditions: library dose: low library concentration; 72 h.
With `C[C@]1(O)C[C@@H](c2nc(-c3ccc4ccc(-c5ccccc5)nc4c3)c3c(N)nccn32)C1` + C[C@@H]1CCN(C(=O)CC#N)C[C@@H]1N(C)c1ncnc2[nH]ccc12 [CP690550] (first compound 0.4 µM, partner dose 1 µM), the “cleaved PARP positive nuclei fraction” value came out at 91.2%.

Turning to `Cn1sc(=O)n(Cc2ccccc2)c1=O` + NCC(=O)Nc1ccc(-n2nc(C(F)(F)F)cc2-c2ccc3c(ccc4ccccc43)c2)cc1 [OSU03012] (first compound 0.4 µM, partner dose 1 µM), the “cleaved PARP positive nuclei fraction” value came out at 105%. Consider `Cn1sc(=O)n(Cc2ccccc2)c1=O` + COc1cc2ncnc(Nc3ccc(Oc4ccccc4)cc3)c2cc1OC [SrcI1] (first compound 0.4 µM, partner dose 2 µM), for which the “cleaved PARP positive nuclei fraction” value is 145%. `Cn1cnc2c(F)c(Nc3ccc(Br)cc3Cl)c(C(=O)NOCCO)cc21` [selumetinib] + Oc1nc(-c2ccc(C(F)(F)F)cc2)nc2c1CSCC2 [XAV939] (first compound 0.015 µM, partner dose 2 µM): the “cleaved PARP positive nuclei fraction” value is 107%. Consider `CCCCCCCCc1ccc(CCC(N)(CO)CO)cc1` [fingolimod] + O=C(CCCCCCC(=O)Nc1ccccc1)NO [vorinostat] (first compound 2 µM, partner dose 0.08 µM), for which the “cleaved PARP positive nuclei fraction” value stood at 71.8%.

Turning to `NC1(c2ccc(-c3nc4ccn5c(=O)[nH]nc5c4cc3-c3ccccc3)cc2)CCC1` + COc1cc2ncnc(Nc3ccc(Oc4ccccc4)cc3)c2cc1OC [SrcI1] (first compound 0.4 µM, partner dose 2 µM), the “cleaved PARP positive nuclei fraction” value is 131%. Consider `CCCCCCCCc1ccc(CCC(N)(CO)CO)cc1` [fingolimod] + Cc1ccc(NC(=O)c2cccc(N(C)C)c2)cc1NC(=O)c1ccc(O)cc1 [ZM336372] (first compound 2 µM, partner dose 2 µM), for which the “cleaved PARP positive nuclei fraction” value turned out to be 58%. Take `Cn1sc(=O)n(Cc2ccccc2)c1=O` + Cn1cc(/C=C2\C(=O)Nc3cccnc32)c2ccccc21 [GW441756] (first compound 0.4 µM, partner dose 0.4 µM): the “cleaved PARP positive nuclei fraction” value was 87.1%. In the case of `CCN(CC)CCNC(=O)c1c(C)[nH]c(/C=C2\C(=O)Nc3ccc(F)cc32)c1C` [sunitinib] + CC1(C)NC(=O)N(c2ccc([N+](=O)[O-])c(C(F)(F)F)c2)C1=O [nilutamide] (first compound 0.4 µM, partner dose 1 µM), the “cleaved PARP positive nuclei fraction” value was found to be 91.8%. As for `CN(c1ncccc1CNc1nc(Nc2ccc3c(c2)CC(=O)N3)ncc1C(F)(F)F)S(C)(=O)=O` + COc1cc2c(Oc3ccc4[nH]c(C)cc4c3F)ncnc2cc1OCCCN1CCCC1 [cediranib] (first compound 0.08 µM, partner dose 0.4 µM), the “cleaved PARP positive nuclei fraction” value was 131%. The same measure, in the same setting: under `C[C@@H](N)c1ccc(C(=O)Nc2ccnc3[nH]ccc23)cc1` + COc1cc2ncnc(Nc3ccc(Oc4ccccc4)cc3)c2cc1OC [SrcI1] (first compound 0.4 µM, partner dose 2 µM) stands 108%. On the same count and under the same terms, under `CCCCCCCCc1ccc(CCC(N)(CO)CO)cc1` [fingolimod] + Oc1cc(-c2nc(-c3ccccc3)[nH]c2-c2ccncc2)ccc1Cl [L779450] (first compound 2 µM, partner dose 0.2 µM) stands 111%. On the same count and under the same terms, under `C[C@@H](N)c1ccc(C(=O)Nc2ccnc3[nH]ccc23)cc1` + O=S(=O)(c1ccccc1)N(CC(F)(F)F)c1ccc(C(O)(C(F)(F)F)C(F)(F)F)cc1 [T0901317] (first compound 0.4 µM, partner dose 1.4 µM) stands 101%. Take `CN(c1ncccc1CNc1nc(Nc2ccc3c(c2)CC(=O)N3)ncc1C(F)(F)F)S(C)(=O)=O` + O=c1cc(-c2cccc3c2Sc2ccccc2S3)oc(N2CCOCC2)c1 [KU55933] (first compound 0.08 µM, partner dose 1 µM): the “cleaved PARP positive nuclei fraction” value was found to be 93.4%. The same measure, in the same setting: under `C[C@]1(O)C[C@@H](c2nc(-c3ccc4ccc(-c5ccccc5)nc4c3)c3c(N)nccn32)C1` + CCc1ccc(CCOc2ccc(CC3SC(=O)NC3=O)cc2)nc1 [pioglitazone] (first compound 0.4 µM, partner dose 2 µM) stands 83%; under `C[C@]1(O)C[C@@H](c2nc(-c3ccc4ccc(-c5ccccc5)nc4c3)c3c(N)nccn32)C1` + COc1ccc2c(c1)CCC1C2CCC2(C)C(NCCCCCCN3C(=O)C=CC3=O)CCC12 [U73122] (first compound 0.4 µM, partner dose 0.4 µM), 122%. Still for that read-out and setting: under `C[C@]1(O)C[C@@H](c2nc(-c3ccc4ccc(-c5ccccc5)nc4c3)c3c(N)nccn32)C1` + O=C1NC(=O)/C(=C/c2ccc(-c3ccc(F)cc3O)o2)S1 [AS252424] (first compound 0.4 µM, partner dose 1 µM) stands 162%; under `CC1(C)CCC(c2ccc(Cl)cc2)=C(CN2CCN(c3ccc(C(=O)NS(=O)(=O)c4ccc(N[C@H](CCN5CCOCC5)CSc5ccccc5)c(S(=O)(=O)C(F)(F)F)c4)cc3)CC2)C1` + O=C(Nc1cccc(Cl)c1)Nc1ncc(CCNc2ncnc3ccsc23)s1 [SNS314] (first compound 0.4 µM, partner dose 0.0008 µM), 67.2%; under `C[C@]1(O)C[C@@H](c2nc(-c3ccc4ccc(-c5ccccc5)nc4c3)c3c(N)nccn32)C1` + O=C(Nc1ccccc1)c1cc([N+](=O)[O-])ccc1Cl [GW9662] (first compound 0.4 µM, partner dose 2 µM), 129%. Same read-out and setting: then `NC1(c2ccc(-c3nc4ccn5c(=O)[nH]nc5c4cc3-c3ccccc3)cc2)CCC1` + Cc1cc(N2CCOCC2)cc2[nH]c(-c3c(NC[C@@H](O)c4cccc(Cl)c4)cc[nH]c3=O)nc12 [BMS536924] (first compound 0.4 µM, partner dose 0.2 µM), with 93.7%; and `CCN(CC)CCNC(=O)c1c(C)[nH]c(/C=C2\C(=O)Nc3ccc(F)cc32)c1C` [sunitinib] + O=c1cc(-c2cccc3c2Sc2ccccc2S3)oc(N2CCOCC2)c1 [KU55933] (first compound 0.4 µM, partner dose 1 µM), with 75.9%. Regarding `CS(=O)(=O)c1ccc(C(=O)Nc2ccc(Cl)c(-c3ccccn3)c2)c(Cl)c1` [vismodegib] + CN(NC(=O)CC(=O)NN(C)C(=S)c1ccccc1)C(=S)c1ccccc1 [STA4783] (first compound 1 µM, partner dose 0.006 µM), the “cleaved PARP positive nuclei fraction” value worked out at 140%.

As to `Cn1cnc2c(F)c(Nc3ccc(Br)cc3Cl)c(C(=O)NOCCO)cc21` [selumetinib] + C=CCNC1=C2C[C@@H](C)C[C@H](OC)[C@H](O)[C@@H](C)/C=C(\C)[C@H](OC(N)=O)[C@@H](OC)/C=C\C=C(/C)C(=O)NC(=CC1=O)C2=O [Tanespimycin] (first compound 0.015 µM, partner dose 0.002 µM), the “cleaved PARP positive nuclei fraction” value was determined as 271%. Take `Cn1cnc2c(F)c(Nc3ccc(Br)cc3Cl)c(C(=O)NOCCO)cc21` [selumetinib] + O=S(=O)(c1ccccc1)N(CC(F)(F)F)c1ccc(C(O)(C(F)(F)F)C(F)(F)F)cc1 [T0901317] (first compound 0.015 µM, partner dose 1.4 µM): the “cleaved PARP positive nuclei fraction” value was found to be 76.9%. Consider `NC1(c2ccc(-c3nc4ccn5c(=O)[nH]nc5c4cc3-c3ccccc3)cc2)CCC1` + O=C(O)C(=O)Nc1sc2c(c1C(=O)O)CCNC2 [TCS401] (first compound 0.4 µM, partner dose 1.66667 µM), for which the “cleaved PARP positive nuclei fraction” value was determined as 107%.
